{
  "sequences": {"note": "Sequences of proteins named here, by UniProt entry; tags and fusion partners are left off. A change or cut given only in a name is not applied to a line headed by its entry. A line that says so, or that is headed by a name, gives the form on record, which may keep a tag or linker.", "UniProt P25788": "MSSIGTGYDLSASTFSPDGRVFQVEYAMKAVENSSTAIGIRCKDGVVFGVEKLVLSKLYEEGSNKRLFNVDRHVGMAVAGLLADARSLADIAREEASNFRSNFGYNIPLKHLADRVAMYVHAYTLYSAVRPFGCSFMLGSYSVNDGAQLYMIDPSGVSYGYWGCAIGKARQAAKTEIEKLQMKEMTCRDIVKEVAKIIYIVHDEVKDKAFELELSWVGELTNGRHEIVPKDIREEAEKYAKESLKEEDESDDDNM", "HC8 SS 243,250AA mutant (P25788, form named)": "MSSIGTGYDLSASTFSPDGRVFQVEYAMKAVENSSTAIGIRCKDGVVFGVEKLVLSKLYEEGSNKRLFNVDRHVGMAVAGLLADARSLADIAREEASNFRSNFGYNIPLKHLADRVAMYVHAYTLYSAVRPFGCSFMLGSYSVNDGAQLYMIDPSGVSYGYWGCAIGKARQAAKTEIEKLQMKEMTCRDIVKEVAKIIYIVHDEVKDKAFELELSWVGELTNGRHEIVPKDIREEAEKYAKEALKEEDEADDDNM", "UniProt P25786": "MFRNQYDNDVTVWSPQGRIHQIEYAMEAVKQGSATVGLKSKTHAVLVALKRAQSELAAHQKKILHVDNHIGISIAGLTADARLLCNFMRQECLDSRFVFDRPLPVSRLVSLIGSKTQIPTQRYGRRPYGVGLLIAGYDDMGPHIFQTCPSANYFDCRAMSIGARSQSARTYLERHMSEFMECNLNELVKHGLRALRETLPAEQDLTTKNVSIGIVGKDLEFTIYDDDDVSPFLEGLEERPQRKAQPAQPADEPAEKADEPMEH", "UniProt Q99558": "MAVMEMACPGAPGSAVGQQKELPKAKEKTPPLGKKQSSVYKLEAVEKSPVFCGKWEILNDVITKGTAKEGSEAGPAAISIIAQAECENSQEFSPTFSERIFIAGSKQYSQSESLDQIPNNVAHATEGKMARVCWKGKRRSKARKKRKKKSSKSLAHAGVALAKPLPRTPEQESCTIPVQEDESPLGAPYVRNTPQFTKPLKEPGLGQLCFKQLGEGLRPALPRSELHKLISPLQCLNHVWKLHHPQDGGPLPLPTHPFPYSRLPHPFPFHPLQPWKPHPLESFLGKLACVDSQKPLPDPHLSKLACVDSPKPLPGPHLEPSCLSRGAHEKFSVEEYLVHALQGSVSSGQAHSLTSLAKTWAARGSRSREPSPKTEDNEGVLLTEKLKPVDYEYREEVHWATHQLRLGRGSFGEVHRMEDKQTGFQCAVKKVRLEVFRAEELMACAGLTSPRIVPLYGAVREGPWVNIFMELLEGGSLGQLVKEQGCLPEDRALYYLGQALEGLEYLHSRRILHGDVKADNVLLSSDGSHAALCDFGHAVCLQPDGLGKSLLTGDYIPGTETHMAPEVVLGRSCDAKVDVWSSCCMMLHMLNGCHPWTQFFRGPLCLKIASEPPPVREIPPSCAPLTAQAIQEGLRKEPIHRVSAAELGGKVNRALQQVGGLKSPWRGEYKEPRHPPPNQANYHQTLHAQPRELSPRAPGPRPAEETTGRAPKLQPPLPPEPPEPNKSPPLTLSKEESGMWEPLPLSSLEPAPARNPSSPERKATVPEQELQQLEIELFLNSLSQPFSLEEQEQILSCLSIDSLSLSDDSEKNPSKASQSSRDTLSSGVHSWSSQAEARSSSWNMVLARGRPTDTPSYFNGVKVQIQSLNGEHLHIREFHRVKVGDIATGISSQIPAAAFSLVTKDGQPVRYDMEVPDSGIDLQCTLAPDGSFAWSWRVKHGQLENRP", "UniProt Q9WUL6": "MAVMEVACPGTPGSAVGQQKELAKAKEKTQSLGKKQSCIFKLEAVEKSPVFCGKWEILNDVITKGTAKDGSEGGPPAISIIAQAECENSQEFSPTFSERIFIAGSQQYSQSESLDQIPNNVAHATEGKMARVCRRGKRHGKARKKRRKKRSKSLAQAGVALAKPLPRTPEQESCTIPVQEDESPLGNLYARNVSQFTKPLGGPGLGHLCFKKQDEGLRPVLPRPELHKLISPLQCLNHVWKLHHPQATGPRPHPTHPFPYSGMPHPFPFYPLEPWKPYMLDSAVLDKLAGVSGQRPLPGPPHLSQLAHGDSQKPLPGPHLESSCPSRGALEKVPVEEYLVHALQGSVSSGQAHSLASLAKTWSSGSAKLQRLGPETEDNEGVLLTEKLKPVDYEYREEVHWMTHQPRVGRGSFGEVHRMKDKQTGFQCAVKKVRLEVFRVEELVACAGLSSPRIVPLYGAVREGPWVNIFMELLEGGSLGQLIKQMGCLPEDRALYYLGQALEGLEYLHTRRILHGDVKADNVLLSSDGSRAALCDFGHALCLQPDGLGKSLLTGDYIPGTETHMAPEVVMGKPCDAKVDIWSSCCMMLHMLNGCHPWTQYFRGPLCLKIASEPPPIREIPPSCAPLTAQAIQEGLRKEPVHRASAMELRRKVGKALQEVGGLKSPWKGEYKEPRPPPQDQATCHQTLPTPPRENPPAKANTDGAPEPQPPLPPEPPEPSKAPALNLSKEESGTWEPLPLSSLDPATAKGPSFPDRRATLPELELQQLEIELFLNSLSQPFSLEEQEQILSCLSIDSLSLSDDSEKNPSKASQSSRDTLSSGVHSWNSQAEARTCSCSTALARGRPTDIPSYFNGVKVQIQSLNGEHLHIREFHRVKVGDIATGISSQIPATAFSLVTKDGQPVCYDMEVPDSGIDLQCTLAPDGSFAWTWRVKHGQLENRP"},
  "source": "patent US20090098106A1",
  "key": {"[1]": {"molecular_target": "HC8 SS 243,250AA mutant (human) (UniProt P25788)", "experiment": "co-immunoprecipitation from 293T cells, Western blot"}, "C2 proteasomal component": {"molecular_target": "C2 proteasomal component (UniProt P25786)", "experiment": "proteasomes precipitated from HeLa cell lysates with anti-C2 antibody, Western blot"}, "TRAF2": {"molecular_target": "T1, TRAF2 (UniProt Q12933)", "T1 sequence (looked up)": "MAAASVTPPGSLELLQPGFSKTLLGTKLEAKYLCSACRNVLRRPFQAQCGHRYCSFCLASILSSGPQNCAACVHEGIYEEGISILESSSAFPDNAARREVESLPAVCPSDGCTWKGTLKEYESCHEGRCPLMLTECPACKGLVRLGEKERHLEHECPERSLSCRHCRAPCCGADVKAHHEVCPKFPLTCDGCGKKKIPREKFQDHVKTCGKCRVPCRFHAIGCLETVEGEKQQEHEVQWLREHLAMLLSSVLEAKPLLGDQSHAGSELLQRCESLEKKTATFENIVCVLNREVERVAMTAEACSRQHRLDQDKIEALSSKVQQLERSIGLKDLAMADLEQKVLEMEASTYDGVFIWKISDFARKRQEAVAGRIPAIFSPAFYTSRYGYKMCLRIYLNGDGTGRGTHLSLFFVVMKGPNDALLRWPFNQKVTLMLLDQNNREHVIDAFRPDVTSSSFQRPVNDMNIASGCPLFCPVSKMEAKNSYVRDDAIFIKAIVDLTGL", "experiment": "yeast two-hybrid, β-gal colour, strain SFY526 (bait NIK-C-ter, prey TRAF2)"}, "[2]": {"molecular_target": "HC8 (α7) subunit of the human 20S proteasome (human) (UniProt P25788)", "experiment": "co-immunoprecipitation from HeLa cells, Western blot"}, "[3]": {"molecular_target": "HC8 (α7) subunit of the human 20S proteasome (human) (UniProt P25788)", "experiment": "co-immunoprecipitation from HeLa cells with anti-NIK monoclonal antibody, Western blot"}},
  "note": "Results are given in words; binding and its absence hold for the method and conditions named. For some assays here: Binding seen in cells or lysates may run through a third protein. Some binding calls cover weakened binding; strength is not graded here.",
  "data": [
    {"substance": "NF-κB inducing kinase (NIK), human, full length (from UniProt Q99558 1-947) (enzyme)", "values": [
      {"measurement": "binding", "setting": "[1]", "result": "binds"},
      {"measurement": "binding", "setting": "C2 proteasomal component", "result": "binds"}
    ]},
    {"substance": "NIK-C-terminus (amino acids 624-947 of SEQ ID NO: 5) (from UniProt Q99558 624-947)", "values": [
      {"measurement": "binding", "setting": "TRAF2", "result": "binds"}
    ]},
    {"substance": "mouse NIK, full length (from UniProt Q9WUL6 1-942) (enzyme)", "values": [
      {"measurement": "binding", "setting": "[2]", "result": "binds"},
      {"measurement": "binding", "setting": "[3]", "result": "binds"}
    ]}
  ]
}
